# This is one part of the list.
# Key:
# Test in all cases: glycan array binding signal (z-score within array); higher = stronger binding
# Settings in all cases: glycan notation: IUPAC condensed, linker removed
# [1] = biological target: Fuc(a1-2)Gal
# Outline: (§1)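 Negative Z-scores can be read as non-binding. The Z-score is calculated within each array and then averaged across arrays of one protein sequence at different concentrations or buffers and across linkers. Arrays, 3228 in all, were curated from the Consortium for Functional Glycomics database and kept only where the protein sequence was available.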
# [2] = biological target: Fuc(a1-2)Gal(b1-3)GalNAc
# Outline: as §1
# [3] = biological target: Fuc(a1-2)Gal(b1-3)GalNAc(a1-3)[Fuc(a1-2)]Gal(b1-4)Glc
# Outline: as §1
# [4] = biological target: Fuc(a1-2)Gal(b1-3)GalNAc(a1-3)[Fuc(a1-2)]Gal(b1-4)GlcNAc
# Outline: as §1
# [5] = biological target: Fuc(a1-2)Gal(b1-3)GalNAc(b1-3)Gal
# Outline: as §1
# [6] = biological target: Fuc(a1-2)Gal(b1-3)GalNAc(b1-3)Gal(a1-4)Gal(b1-4)Glc
# Outline: as §1
# [7] = biological target: Fuc(a1-2)Gal(b1-3)GalNAc(b1-4)[Neu5Ac(a2-3)]Gal(b1-4)Glc
# Outline: as §1
# [8] = biological target: Fuc(a1-2)Gal(b1-3)GlcNAc
# Outline: as §1
# [9] = biological target: Fuc(a1-2)Gal(b1-3)GlcNAc(b1-2)Man(a1-3)[Fuc(a1-2)Gal(b1-3)GlcNAc(b1-2)Man(a1-6)]Man(b1-4)GlcNAc(b1-4)GlcNAc
# Outline: as §1
# [10] = biological target: Fuc(a1-2)Gal(b1-3)GlcNAc(b1-2)Man(a1-3)[Fuc(a1-2)Gal(b1-3)GlcNAc(b1-2)Man(a1-6)]Man(b1-4)GlcNAc(b1-4)[Fuc(a1-6)]GlcNAc
# Outline: as §1
# [11] = biological target: Fuc(a1-2)Gal(b1-3)GlcNAc(b1-3)Gal(b1-4)Glc
# Outline: as §1
# [12] = biological target: Fuc(a1-2)Gal(b1-3)GlcNAc(b1-3)GalNAc
# Outline: as §1
# [13] = biological target: Fuc(a1-2)Gal(b1-3)GlcNAc(b1-3)[Fuc(a1-2)Gal(b1-3)GlcNAc(b1-6)]GalNAc
# Outline: as §1
# [14] = biological target: Fuc(a1-2)Gal(b1-3)GlcNAc(b1-3)[Fuc(a1-3)[Gal(b1-4)]GlcNAc(b1-6)]Gal(b1-4)Glc
# Outline: as §1
# [15] = biological target: Fuc(a1-2)Gal(b1-3)GlcNAc(b1-3)[Gal(b1-4)GlcNAc(b1-6)]Gal(b1-4)Glc
# Outline: as §1
# [16] = biological target: Fuc(a1-2)Gal(b1-3)GlcNAc(b1-3)[Neu5Ac(a2-6)Gal(b1-4)GlcNAc(b1-6)]Gal(b1-4)Glc
# Outline: as §1
# [17] = biological target: Fuc(a1-2)Gal(b1-3)GlcNAc6S
# Outline: as §1
# [18] = biological target: Fuc(a1-2)Gal(b1-3)[Fuc(a1-4)]GlcNAc
# Outline: as §1
# [19] = biological target: Fuc(a1-2)Gal(b1-3)[Fuc(a1-4)]GlcNAc(b1-2)Man(a1-3)[Fuc(a1-2)Gal(b1-3)[Fuc(a1-4)]GlcNAc(b1-2)Man(a1-3)]Man(b1-4)GlcNAc(b1-4)GlcNAc
# Outline: as §1
# [20] = biological target: Fuc(a1-2)Gal(b1-3)[Fuc(a1-4)]GlcNAc(b1-2)Man(a1-3)[Fuc(a1-2)Gal(b1-3)[Fuc(a1-4)]GlcNAc(b1-2)Man(a1-6)]Man(b1-4)GlcNAc(b1-4)GlcNAc
# Outline: as §1
# [21] = biological target: Fuc(a1-2)Gal(b1-3)[Fuc(a1-4)]GlcNAc(b1-2)Man(a1-3)[Fuc(a1-2)Gal(b1-3)[Fuc(a1-4)]GlcNAc(b1-2)Man(a1-6)]Man(b1-4)GlcNAc(b1-4)[Fuc(a1-6)]GlcNAc(b1-4)[Fuc(a1-6)]GlcNAc
# Outline: as §1
# [22] = biological target: Fuc(a1-2)Gal(b1-3)[Fuc(a1-4)]GlcNAc(b1-3)[Fuc(a1-3)[Gal(b1-4)]GlcNAc(b1-6)]Gal(b1-4)Glc
# Outline: as §1
# [23] = biological target: Fuc(a1-2)Gal(b1-3)[Fuc(a1-4)]GlcNAc(b1-3)[Gal(b1-4)GlcNAc(b1-6)]Gal(b1-4)Glc
# Outline: as §1
# [24] = biological target: Fuc(a1-2)Gal(b1-4)Fuc(a1-3)]GlcNAc(b1-2)Man(a1-3)[Fuc(a1-2)Gal(b1-4)[Fuc(a1-3)]GlcNAc(b1-2)Man(a1-6)]Man(b1-4)GlcNAc(b1-4)GlcNAc
# Outline: as §1
# [25] = biological target: Fuc(a1-2)Gal(b1-4)Glc
# Outline: as §1
# [26] = biological target: Fuc(a1-2)Gal(b1-4)Glc6S
# Outline: as §1
# [27] = biological target: Fuc(a1-2)Gal(b1-4)GlcNAc
# Outline: as §1
# [28] = biological target: Fuc(a1-2)Gal(b1-4)GlcNAc(b1-2)Man
# Outline: as §1
# [29] = biological target: Fuc(a1-2)Gal(b1-4)GlcNAc(b1-2)Man(a1-3)[Fuc(a1-2)Gal(b1-4)GlcNAc(b1-2)Man(a1-6)]Man(b1-4)GlcNAc(b1-4)GlcNAc
# Outline: as §1
# [30] = biological target: Fuc(a1-2)Gal(b1-4)GlcNAc(b1-2)Man(a1-3)[Fuc(a1-2)Gal(b1-4)GlcNAc(b1-2)Man(a1-6)]Man(b1-4)GlcNAc(b1-4)[Fuc(a1-6)]GlcNAc
# Outline: as §1
binder,measurement,setting,value
"CRT-1 (Homo sapiens), P27797 (protein) MLLSVPLLLGLLGLAVAEPAVYFKEQFLDGDGWTSRWIESKHKSDFGKFVLSSGKFYGDEEKDKGLQTSQDARFYALSASFEPFSNKGQTLVVQFTVKHEQNIDCGGGYVKLFPNSLDQTDMHGDSEYNIMFGPDICGPGTKKVHVIFNYKGKNVLINKDIRCKDDEFTHLYTLIVRPDNTYEVKIDNSQVESGSLEDDWDFLPPKKIKDPDASKPEDWDERAKIDDPTDSKPEDWDKPEHIPDPDAKKPEDWDEEMDGEWEPPVIQNPEYKGEWKPRQIDNPDYKGTWIHPEIDNPEYSPDPSIYAYDNFGVLGLDLWQVKSGTIFDNFLITNDEAYAEEFGNETWGVTKAAEKQMKDKQDEEQRLKEEEEDKKRKEEEEAEDKEDDEDKDEDEEDEEDKEEDEEEDVPGQAKDEL",glycan array binding signal (z-score),[1],0.561
same,glycan array binding signal (z-score),[2],-0.346
same,glycan array binding signal (z-score),[3],0.26
same,glycan array binding signal (z-score),[4],-0.392
same,glycan array binding signal (z-score),[5],-0.496
same,glycan array binding signal (z-score),[6],-0.241
same,glycan array binding signal (z-score),[7],-0.178
same,glycan array binding signal (z-score),[8],-0.03
same,glycan array binding signal (z-score),[9],0.505
same,glycan array binding signal (z-score),[10],0.015
same,glycan array binding signal (z-score),[11],-0.399
same,glycan array binding signal (z-score),[12],0.011
same,glycan array binding signal (z-score),[13],-0.305
same,glycan array binding signal (z-score),[14],-0.314
same,glycan array binding signal (z-score),[15],0.889
same,glycan array binding signal (z-score),[16],-0.726
same,glycan array binding signal (z-score),[17],0.906
same,glycan array binding signal (z-score),[18],0.199
same,glycan array binding signal (z-score),[19],1.31
same,glycan array binding signal (z-score),[20],0.432
same,glycan array binding signal (z-score),[21],0.15
same,glycan array binding signal (z-score),[22],-0.431
same,glycan array binding signal (z-score),[23],0.054
same,glycan array binding signal (z-score),[24],1.49
same,glycan array binding signal (z-score),[25],-0.194
same,glycan array binding signal (z-score),[26],0.223
same,glycan array binding signal (z-score),[27],0.568
same,glycan array binding signal (z-score),[28],-0.238
same,glycan array binding signal (z-score),[29],0.26
same,glycan array binding signal (z-score),[30],0.226

# 2 entries picked at random from those above:
binder,measurement,setting,value
"CRT-1 (Homo sapiens), P27797 (protein) MLLSVPLLLGLLGLAVAEPAVYFKEQFLDGDGWTSRWIESKHKSDFGKFVLSSGKFYGDEEKDKGLQTSQDARFYALSASFEPFSNKGQTLVVQFTVKHEQNIDCGGGYVKLFPNSLDQTDMHGDSEYNIMFGPDICGPGTKKVHVIFNYKGKNVLINKDIRCKDDEFTHLYTLIVRPDNTYEVKIDNSQVESGSLEDDWDFLPPKKIKDPDASKPEDWDERAKIDDPTDSKPEDWDKPEHIPDPDAKKPEDWDEEMDGEWEPPVIQNPEYKGEWKPRQIDNPDYKGTWIHPEIDNPEYSPDPSIYAYDNFGVLGLDLWQVKSGTIFDNFLITNDEAYAEEFGNETWGVTKAAEKQMKDKQDEEQRLKEEEEDKKRKEEEEAEDKEDDEDKDEDEEDEEDKEEDEEEDVPGQAKDEL",glycan array binding signal (z-score),[13],-0.305
same,glycan array binding signal (z-score),[20],0.432
